Data taken from the supplement of paper PMC8728848.
Some of the results follow.

Columns and labels:
Experiment in all cases: glycan array binding signal (z-score within array); higher = stronger binding
Settings in all cases: glycan notation: IUPAC condensed, linker removed
[1] = biological target: Gal(b1-4)GlcNAc(b1-2)[Gal(b1-4)GlcNAc(b1-6)]Man(a1-6)[GlcNAc(b1-4)][Gal(b1-4)GlcNAc(b1-2)Man(a1-3)]Man(b1-4)GlcNAc(b1-4)GlcNAc
How it was run: (§1)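 The binding signal is a Z-score computed within each array. Data were drawn from 3228 arrays in the Consortium for Functional Glycomics database, restricted to those with a known protein sequence. Scores were averaged over arrays of the same protein sequence at different concentrations or buffers, and over linkers, and negative values can be taken as non-binding.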

[2] = biological target: Gal(b1-4)GlcNAc(b1-2)[Gal(b1-4)GlcNAc(b1-6)]Man(a1-6)[GlcNAc(b1-4)][Gal(b1-4)GlcNAc(b1-2)[Gal(b1-4)GlcNAc(b1-4)]Man(a1-3)]Man(b1-4)GlcNAc(b1-4)[Fuc(a1-6)]GlcNAc
How it was run: as §1

[3] = biological target: Gal(b1-4)GlcNAc(b1-3)Gal(b1-3)GalNAc
How it was run: as §1

[4] = biological target: Gal(b1-4)GlcNAc(b1-3)Gal(b1-3)GlcNAc
How it was run: as §1

[5] = biological target: Gal(b1-4)GlcNAc(b1-3)Gal(b1-4)Glc
How it was run: as §1

[6] = biological target: Gal(b1-4)GlcNAc(b1-3)Gal(b1-4)GlcNAc
How it was run: as §1

[7] = biological target: Gal(b1-4)GlcNAc(b1-3)Gal(b1-4)GlcNAc(b1-2)Man(a1-3)[Gal(b1-4)GlcNAc(b1-3)Gal(b1-4)GlcNAc(b1-2)Man(a1-6)]Man(b1-4)GlcNAc(b1-4)GlcNAc
How it was run: as §1

[8] = biological target: Gal(b1-4)GlcNAc(b1-3)Gal(b1-4)GlcNAc(b1-2)Man(a1-3)[Gal(b1-4)GlcNAc(b1-3)Gal(b1-4)GlcNAc(b1-2)Man(a1-6)]Man(b1-4)GlcNAc(b1-4)[Fuc(a1-6)]GlcNAc
How it was run: as §1

[9] = biological target: Gal(b1-4)GlcNAc(b1-3)Gal(b1-4)GlcNAc(b1-2)[Gal(b1-4)GlcNAc(b1-3)Gal(b1-4)GlcNAc(b1-6)]Man(a1-6)[Gal(b1-4)GlcNAc(b1-3)Gal(b1-4)GlcNAc(b1-2)Man(a1-3)]Man(b1-4)GlcNAc(b1-4)GlcNAc
How it was run: as §1

[10] = biological target: Gal(b1-4)GlcNAc(b1-3)Gal(b1-4)GlcNAc(b1-2)[Gal(b1-4)GlcNAc(b1-3)Gal(b1-4)GlcNAc(b1-6)]Man(a1-6)[Gal(b1-4)GlcNAc(b1-3)Gal(b1-4)GlcNAc(b1-2)Man(a1-3)]Man(b1-4)GlcNAc(b1-4)[Fuc(a1-6)]GlcNAc
How it was run: as §1

[11] = biological target: Gal(b1-4)GlcNAc(b1-3)Gal(b1-4)GlcNAc(b1-3)Gal(b1-4)GlcNAc
How it was run: as §1

[12] = biological target: Gal(b1-4)GlcNAc(b1-3)Gal(b1-4)GlcNAc(b1-3)Gal(b1-4)GlcNAc(b1-2)Man(a1-3)[Gal(b1-4)GlcNAc(b1-3)Gal(b1-4)GlcNAc(b1-3)Gal(b1-4)GlcNAc(b1-2)Man(a1-6)]Man(b1-4)GlcNAc(b1-4)GlcNAc
How it was run: as §1

[13] = biological target: Gal(b1-4)GlcNAc(b1-3)Gal(b1-4)GlcNAc(b1-3)Gal(b1-4)GlcNAc(b1-2)Man(a1-3)[Gal(b1-4)GlcNAc(b1-3)Gal(b1-4)GlcNAc(b1-3)Gal(b1-4)GlcNAc(b1-2)Man(a1-6)]Man(b1-4)GlcNAc(b1-4)[Fuc(a1-6)]GlcNAc
How it was run: as §1

[14] = biological target: Gal(b1-4)GlcNAc(b1-3)Gal(b1-4)GlcNAc(b1-3)Gal(b1-4)GlcNAc(b1-2)[Gal(b1-4)GlcNAc(b1-3)Gal(b1-4)GlcNAc(b1-3)Gal(b1-4)GlcNAc(b1-6)]Man(a1-6)[Gal(b1-4)GlcNAc(b1-3)Gal(b1-4)GlcNAc(b1-3)Gal(b1-4)GlcNAc(b1-2)Man(a1-3)]Man(b1-4)GlcNAc(b1-4)[Fuc(a1-6)]GlcNAc
How it was run: as §1

[15] = biological target: Gal(b1-4)GlcNAc(b1-3)Gal(b1-4)GlcNAc(b1-3)Gal(b1-4)GlcNAc(b1-3)Gal(b1-4)GlcNAc(b1-2)Man(a1-3)[Gal(b1-4)GlcNAc(b1-3)Gal(b1-4)GlcNAc(b1-3)Gal(b1-4)GlcNAc(b1-3)Gal(b1-4)GlcNAc(b1-2)Man(a1-6)]Man(b1-4)GlcNAc(b1-4)GlcNAc
How it was run: as §1

[16] = biological target: Gal(b1-4)GlcNAc(b1-3)Gal(b1-4)GlcNAc(b1-3)Gal(b1-4)GlcNAc(b1-3)Gal(b1-4)GlcNAc(b1-2)Man(a1-3)[Gal(b1-4)GlcNAc(b1-3)Gal(b1-4)GlcNAc(b1-3)Gal(b1-4)GlcNAc(b1-3)Gal(b1-4)GlcNAc(b1-2)Man(a1-6)]Man(b1-4)GlcNAc(b1-4)[Fuc(a1-6)]GlcNAc
How it was run: as §1

[17] = biological target: Gal(b1-4)GlcNAc(b1-3)Gal(b1-4)GlcNAc(b1-3)Gal(b1-4)GlcNAc(b1-3)Gal(b1-4)GlcNAc(b1-2)[Gal(b1-4)GlcNAc(b1-3)Gal(b1-4)GlcNAc(b1-3)Gal(b1-4)GlcNAc(b1-3)Gal(b1-4)GlcNAc(b1-6)]Man(a1-6)[Gal(b1-4)GlcNAc(b1-3)Gal(b1-4)GlcNAc(b1-3)Gal(b1-4)GlcNAc(b1-3)Gal(b1-4)GlcNAc(b1-2)Man(a1-3)]Man(b1-4)GlcNAc(b1-4)[Fuc(a1-6)]GlcNAc
How it was run: as §1

[18] = biological target: Gal(b1-4)GlcNAc(b1-3)Gal(b1-4)GlcNAc(b1-3)Gal(b1-4)GlcNAc(b1-3)Gal(b1-4)GlcNAc(b1-3)Gal(b1-4)GlcNAc(b1-2)Man(a1-3)[Gal(b1-4)GlcNAc(b1-3)Gal(b1-4)GlcNAc(b1-3)Gal(b1-4)GlcNAc(b1-3)Gal(b1-4)GlcNAc(b1-3)Gal(b1-4)GlcNAc(b1-2)Man(a1-6)]Man(b1-4)GlcNAc(b1-4)GlcNAc
How it was run: as §1

[19] = biological target: Gal(b1-4)GlcNAc(b1-3)Gal(b1-4)GlcNAc(b1-3)Gal(b1-4)GlcNAc(b1-3)Gal(b1-4)GlcNAc(b1-3)Gal(b1-4)GlcNAc(b1-2)Man(a1-3)[Gal(b1-4)GlcNAc(b1-3)Gal(b1-4)GlcNAc(b1-3)Gal(b1-4)GlcNAc(b1-3)Gal(b1-4)GlcNAc(b1-3)Gal(b1-4)GlcNAc(b1-2)Man(a1-6)]Man(b1-4)GlcNAc(b1-4)[Fuc(a1-6)]GlcNAc
How it was run: as §1

[20] = biological target: Gal(b1-4)GlcNAc(b1-3)Gal(b1-4)GlcNAc(b1-3)Gal(b1-4)GlcNAc(b1-3)Gal(b1-4)GlcNAc(b1-3)Gal(b1-4)GlcNAc(b1-2)[Gal(b1-4)GlcNAc(b1-3)Gal(b1-4)GlcNAc(b1-3)Gal(b1-4)GlcNAc(b1-3)Gal(b1-4)GlcNAc(b1-3)Gal(b1-4)GlcNAc(b1-6)]Man(a1-6)[Gal(b1-4)GlcNAc(b1-3)Gal(b1-4)GlcNAc(b1-3)Gal(b1-4)GlcNAc(b1-3)Gal(b1-4)GlcNAc(b1-3)Gal(b1-4)GlcNAc(b1-2)Man(a1-3)]Man(b1-4)GlcNAc(b1-4)[Fuc(a1-6)]GlcNAc
How it was run: as §1

[21] = biological target: Gal(b1-4)GlcNAc(b1-3)Gal(b1-4)GlcNAc(b1-3)Gal(b1-4)GlcNAc(b1-3)Gal(b1-4)GlcNAc(b1-3)Gal(b1-4)GlcNAc(b1-3)Gal(b1-4)GlcNAc(b1-2)Man(a1-3)[Gal(b1-4)GlcNAc(b1-3)Gal(b1-4)GlcNAc(b1-3)Gal(b1-4)GlcNAc(b1-3)Gal(b1-4)GlcNAc(b1-3)Gal(b1-4)GlcNAc(b1-3)Gal(b1-4)GlcNAc(b1-2)Man(a1-6)]Man(b1-4)GlcNAc(b1-4)GlcNAc
How it was run: as §1

[22] = biological target: Gal(b1-4)GlcNAc(b1-3)Gal(b1-4)GlcNAc(b1-3)GalNAc
How it was run: as §1

[23] = biological target: Gal(b1-4)GlcNAc(b1-3)Gal(b1-4)GlcNAc(b1-3)[Gal(b1-4)GlcNAc(b1-3)Gal(b1-4)GlcNAc(b1-6)]GalNAc
How it was run: as §1

B1: Mincle (Bos taurus) (protein)
chain: MNSSTSPASQTERRCFSFQLFSWAIAGTSILLLSACFITRCVVTYSIFQLCDEKKFQPPGDSMELSCYNDGSGSVKNCCPLKWFHFQSSCYLFSPDTMSWRASLKNCSSMGAHLVVINTQEEQEFLYYTKPRKKEFYIGLTDQVTEGQWQWVDGTPFTKSLSFWDAGEPNNLVIVEDCATIRDSSNPRQNWNDVPCFFNMFRVCEMPERKI
- glycan array binding signal (z-score) [1]: 0.236
- glycan array binding signal (z-score) [2]: 0.41
- glycan array binding signal (z-score) [3]: -0.407
- glycan array binding signal (z-score) [4]: -0.097
- glycan array binding signal (z-score) [5]: -0.083
- glycan array binding signal (z-score) [6]: -0.628
- glycan array binding signal (z-score) [7]: 1.83
- glycan array binding signal (z-score) [8]: 1.11
- glycan array binding signal (z-score) [9]: 1.25
- glycan array binding signal (z-score) [10]: 1.12
- glycan array binding signal (z-score) [11]: -0.424
- glycan array binding signal (z-score) [12]: 1.65
- glycan array binding signal (z-score) [13]: 0.543
- glycan array binding signal (z-score) [14]: 0.941
- glycan array binding signal (z-score) [15]: 0.361
- glycan array binding signal (z-score) [16]: 0.986
- glycan array binding signal (z-score) [17]: 0.441
- glycan array binding signal (z-score) [18]: -0.325
- glycan array binding signal (z-score) [19]: -0.151
- glycan array binding signal (z-score) [20]: 0.237
- glycan array binding signal (z-score) [21]: 0.667
- glycan array binding signal (z-score) [22]: 2.55
- glycan array binding signal (z-score) [23]: 2.3
